Measured values published in paper PMC8748612, “Maximizing response to intratumoral immunotherapy in mice by tuning local retention” (Nature Communications, 2022).
Results are given in words; binding and its absence hold for the method and conditions named. Some results given as binding are weak or reduced against the parent protein; the word gives no strength. Where a sequence is shown, tags or fusion partners need not be part of it.

By UniProt entry, the sequences of proteins in these tests, tags left out. Where a name states a change or a piece, a line headed by the entry shows the natural chain unless it says otherwise.
UniProt P02454: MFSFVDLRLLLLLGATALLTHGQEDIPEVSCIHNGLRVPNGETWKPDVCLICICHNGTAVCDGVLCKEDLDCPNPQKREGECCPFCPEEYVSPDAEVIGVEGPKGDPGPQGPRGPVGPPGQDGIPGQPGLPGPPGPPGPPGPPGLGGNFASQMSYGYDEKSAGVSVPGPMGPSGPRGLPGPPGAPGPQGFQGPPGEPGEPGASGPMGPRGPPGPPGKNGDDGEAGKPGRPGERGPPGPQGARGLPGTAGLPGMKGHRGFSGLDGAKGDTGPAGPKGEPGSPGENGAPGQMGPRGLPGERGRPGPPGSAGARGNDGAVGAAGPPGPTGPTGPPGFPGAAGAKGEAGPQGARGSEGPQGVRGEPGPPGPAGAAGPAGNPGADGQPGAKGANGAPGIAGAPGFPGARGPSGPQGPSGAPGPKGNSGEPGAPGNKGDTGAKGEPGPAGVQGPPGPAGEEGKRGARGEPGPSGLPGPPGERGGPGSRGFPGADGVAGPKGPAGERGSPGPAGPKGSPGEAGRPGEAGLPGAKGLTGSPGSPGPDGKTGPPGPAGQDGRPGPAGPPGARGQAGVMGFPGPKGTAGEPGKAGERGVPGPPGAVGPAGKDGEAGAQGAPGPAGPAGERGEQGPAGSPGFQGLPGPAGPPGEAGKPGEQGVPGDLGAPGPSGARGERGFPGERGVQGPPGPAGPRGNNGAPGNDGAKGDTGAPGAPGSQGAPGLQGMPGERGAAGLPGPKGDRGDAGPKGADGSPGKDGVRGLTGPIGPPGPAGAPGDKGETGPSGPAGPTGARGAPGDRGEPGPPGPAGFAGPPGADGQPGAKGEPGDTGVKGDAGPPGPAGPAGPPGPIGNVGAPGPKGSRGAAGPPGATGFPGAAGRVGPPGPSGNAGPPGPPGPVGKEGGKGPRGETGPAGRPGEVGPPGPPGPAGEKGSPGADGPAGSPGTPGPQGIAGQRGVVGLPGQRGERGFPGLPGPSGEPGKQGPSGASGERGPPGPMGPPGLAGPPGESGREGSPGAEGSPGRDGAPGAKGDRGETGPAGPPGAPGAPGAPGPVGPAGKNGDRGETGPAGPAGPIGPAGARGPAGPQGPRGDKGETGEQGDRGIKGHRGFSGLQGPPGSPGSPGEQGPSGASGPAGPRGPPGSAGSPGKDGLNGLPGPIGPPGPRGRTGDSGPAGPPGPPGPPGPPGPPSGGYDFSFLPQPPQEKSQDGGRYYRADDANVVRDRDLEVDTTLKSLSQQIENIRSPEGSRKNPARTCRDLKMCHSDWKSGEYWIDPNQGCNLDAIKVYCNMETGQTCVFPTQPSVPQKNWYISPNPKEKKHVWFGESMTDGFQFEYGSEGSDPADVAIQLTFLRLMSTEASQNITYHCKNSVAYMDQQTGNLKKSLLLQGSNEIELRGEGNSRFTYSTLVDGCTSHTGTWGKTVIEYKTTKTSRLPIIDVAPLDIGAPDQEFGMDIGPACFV

Molecular target: Collagen I (Gibco), coated on 96-well plates (UniProt P02454)
Experiment: ELISA; Collagen I (Gibco) coated 96-well plates; LAIR-fusion proteins in PBSTA (PBS, 0.1% BSA, 0.05% Tween-20) for 4 h at room temperature; detected with HRP-conjugated polyclonal anti-6xHis; both purified

Binder	binding
LAIR-his (domain or fragment) QEGSLPDITIFPNSSLMISQGTFVTVVCSYSDKHDLYNMVRLEKDGSTFMEKSTEPYKTEDEFEIGPVNETITGHYSCIYSKGITWSERSKTLELKVIKENVIQTPAPGPTSDTSWLKTYSIY	binds
LAIRx-his (domain or fragment) QEGSLPDITIFPNSSLMISQGTFVTVVCSYSDKHDLYNMVALAKDGSTFMEKSTEPYKTEDEFEIGPVNETITGHYSCIYSKGITWSERSKTLELKVIKENVIQTPAPGPTSDTSWLKTYSIY	no binding
